In publication PMC7999107:
No constants are given. Whether binding was seen depends on the method and setting. Binding seen in cells or lysates may run through a third protein. Here binding means that the protein was enriched with, or labelled near, the bait; the list need not be complete.

Protein sequences, listed by entry. Tags and fused reporters are not part of them. Lines headed by an entry give the natural chain unless they say otherwise; changes in a name come on top.
UniProt B2RWS6: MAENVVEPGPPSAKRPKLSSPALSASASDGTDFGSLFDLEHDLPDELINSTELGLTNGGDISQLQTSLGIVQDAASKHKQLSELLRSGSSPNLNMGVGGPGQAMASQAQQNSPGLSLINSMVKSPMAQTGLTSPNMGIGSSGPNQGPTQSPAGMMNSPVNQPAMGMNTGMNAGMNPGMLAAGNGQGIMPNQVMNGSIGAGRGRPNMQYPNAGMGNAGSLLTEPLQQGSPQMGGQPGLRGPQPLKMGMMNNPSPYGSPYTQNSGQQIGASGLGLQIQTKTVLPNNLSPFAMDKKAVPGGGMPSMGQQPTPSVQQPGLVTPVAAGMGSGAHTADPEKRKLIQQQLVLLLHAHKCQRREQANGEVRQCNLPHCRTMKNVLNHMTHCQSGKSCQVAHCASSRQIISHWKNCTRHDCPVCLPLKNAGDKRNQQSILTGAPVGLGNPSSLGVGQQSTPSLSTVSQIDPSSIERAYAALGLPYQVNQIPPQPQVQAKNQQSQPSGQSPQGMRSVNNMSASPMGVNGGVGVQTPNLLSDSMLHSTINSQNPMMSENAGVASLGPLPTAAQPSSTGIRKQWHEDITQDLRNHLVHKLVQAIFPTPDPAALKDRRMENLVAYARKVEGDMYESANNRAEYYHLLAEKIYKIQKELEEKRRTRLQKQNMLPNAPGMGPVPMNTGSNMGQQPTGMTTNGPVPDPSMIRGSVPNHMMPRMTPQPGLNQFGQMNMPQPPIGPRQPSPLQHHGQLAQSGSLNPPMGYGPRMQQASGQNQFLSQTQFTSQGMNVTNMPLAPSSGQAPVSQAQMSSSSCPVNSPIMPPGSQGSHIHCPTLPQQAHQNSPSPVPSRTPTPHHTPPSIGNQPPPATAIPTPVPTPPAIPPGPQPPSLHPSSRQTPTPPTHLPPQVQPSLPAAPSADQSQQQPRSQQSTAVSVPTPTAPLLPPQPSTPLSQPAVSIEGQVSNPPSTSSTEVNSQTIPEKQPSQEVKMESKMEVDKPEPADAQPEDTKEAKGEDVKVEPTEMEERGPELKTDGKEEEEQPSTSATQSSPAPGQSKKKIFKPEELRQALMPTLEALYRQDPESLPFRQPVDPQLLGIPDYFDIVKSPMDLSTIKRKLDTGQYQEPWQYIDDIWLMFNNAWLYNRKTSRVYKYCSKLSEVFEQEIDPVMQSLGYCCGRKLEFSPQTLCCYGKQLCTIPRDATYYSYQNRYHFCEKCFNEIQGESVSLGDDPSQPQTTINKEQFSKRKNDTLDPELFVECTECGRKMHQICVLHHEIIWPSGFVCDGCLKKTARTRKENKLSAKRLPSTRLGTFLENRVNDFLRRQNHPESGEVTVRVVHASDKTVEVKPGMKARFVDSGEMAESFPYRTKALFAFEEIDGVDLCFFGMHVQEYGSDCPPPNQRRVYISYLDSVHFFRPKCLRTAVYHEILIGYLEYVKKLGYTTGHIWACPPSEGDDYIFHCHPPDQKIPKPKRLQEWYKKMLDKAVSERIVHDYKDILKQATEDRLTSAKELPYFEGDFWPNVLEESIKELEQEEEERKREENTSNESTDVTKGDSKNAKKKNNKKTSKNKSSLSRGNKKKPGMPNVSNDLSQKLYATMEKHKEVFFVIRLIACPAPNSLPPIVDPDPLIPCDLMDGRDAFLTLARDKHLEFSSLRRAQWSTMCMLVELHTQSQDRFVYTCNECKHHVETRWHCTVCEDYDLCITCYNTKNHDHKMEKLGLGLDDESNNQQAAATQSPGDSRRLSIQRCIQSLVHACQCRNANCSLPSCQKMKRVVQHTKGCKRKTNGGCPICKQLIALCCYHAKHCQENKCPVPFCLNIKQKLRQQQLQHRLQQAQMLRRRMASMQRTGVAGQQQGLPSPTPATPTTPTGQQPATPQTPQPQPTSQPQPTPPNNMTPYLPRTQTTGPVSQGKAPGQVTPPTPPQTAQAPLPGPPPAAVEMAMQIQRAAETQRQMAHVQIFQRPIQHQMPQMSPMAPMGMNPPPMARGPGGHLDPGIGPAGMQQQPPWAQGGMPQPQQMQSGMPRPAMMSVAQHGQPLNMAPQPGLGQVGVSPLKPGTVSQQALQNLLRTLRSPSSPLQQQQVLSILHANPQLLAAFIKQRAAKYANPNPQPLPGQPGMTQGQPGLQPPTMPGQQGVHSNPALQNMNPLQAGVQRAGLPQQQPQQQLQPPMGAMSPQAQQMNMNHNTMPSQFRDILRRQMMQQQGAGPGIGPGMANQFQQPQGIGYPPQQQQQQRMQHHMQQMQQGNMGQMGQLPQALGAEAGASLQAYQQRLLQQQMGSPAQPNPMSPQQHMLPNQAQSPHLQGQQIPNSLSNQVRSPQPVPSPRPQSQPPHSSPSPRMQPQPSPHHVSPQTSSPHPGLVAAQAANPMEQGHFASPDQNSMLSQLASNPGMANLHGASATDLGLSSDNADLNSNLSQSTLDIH
UniProt P45481: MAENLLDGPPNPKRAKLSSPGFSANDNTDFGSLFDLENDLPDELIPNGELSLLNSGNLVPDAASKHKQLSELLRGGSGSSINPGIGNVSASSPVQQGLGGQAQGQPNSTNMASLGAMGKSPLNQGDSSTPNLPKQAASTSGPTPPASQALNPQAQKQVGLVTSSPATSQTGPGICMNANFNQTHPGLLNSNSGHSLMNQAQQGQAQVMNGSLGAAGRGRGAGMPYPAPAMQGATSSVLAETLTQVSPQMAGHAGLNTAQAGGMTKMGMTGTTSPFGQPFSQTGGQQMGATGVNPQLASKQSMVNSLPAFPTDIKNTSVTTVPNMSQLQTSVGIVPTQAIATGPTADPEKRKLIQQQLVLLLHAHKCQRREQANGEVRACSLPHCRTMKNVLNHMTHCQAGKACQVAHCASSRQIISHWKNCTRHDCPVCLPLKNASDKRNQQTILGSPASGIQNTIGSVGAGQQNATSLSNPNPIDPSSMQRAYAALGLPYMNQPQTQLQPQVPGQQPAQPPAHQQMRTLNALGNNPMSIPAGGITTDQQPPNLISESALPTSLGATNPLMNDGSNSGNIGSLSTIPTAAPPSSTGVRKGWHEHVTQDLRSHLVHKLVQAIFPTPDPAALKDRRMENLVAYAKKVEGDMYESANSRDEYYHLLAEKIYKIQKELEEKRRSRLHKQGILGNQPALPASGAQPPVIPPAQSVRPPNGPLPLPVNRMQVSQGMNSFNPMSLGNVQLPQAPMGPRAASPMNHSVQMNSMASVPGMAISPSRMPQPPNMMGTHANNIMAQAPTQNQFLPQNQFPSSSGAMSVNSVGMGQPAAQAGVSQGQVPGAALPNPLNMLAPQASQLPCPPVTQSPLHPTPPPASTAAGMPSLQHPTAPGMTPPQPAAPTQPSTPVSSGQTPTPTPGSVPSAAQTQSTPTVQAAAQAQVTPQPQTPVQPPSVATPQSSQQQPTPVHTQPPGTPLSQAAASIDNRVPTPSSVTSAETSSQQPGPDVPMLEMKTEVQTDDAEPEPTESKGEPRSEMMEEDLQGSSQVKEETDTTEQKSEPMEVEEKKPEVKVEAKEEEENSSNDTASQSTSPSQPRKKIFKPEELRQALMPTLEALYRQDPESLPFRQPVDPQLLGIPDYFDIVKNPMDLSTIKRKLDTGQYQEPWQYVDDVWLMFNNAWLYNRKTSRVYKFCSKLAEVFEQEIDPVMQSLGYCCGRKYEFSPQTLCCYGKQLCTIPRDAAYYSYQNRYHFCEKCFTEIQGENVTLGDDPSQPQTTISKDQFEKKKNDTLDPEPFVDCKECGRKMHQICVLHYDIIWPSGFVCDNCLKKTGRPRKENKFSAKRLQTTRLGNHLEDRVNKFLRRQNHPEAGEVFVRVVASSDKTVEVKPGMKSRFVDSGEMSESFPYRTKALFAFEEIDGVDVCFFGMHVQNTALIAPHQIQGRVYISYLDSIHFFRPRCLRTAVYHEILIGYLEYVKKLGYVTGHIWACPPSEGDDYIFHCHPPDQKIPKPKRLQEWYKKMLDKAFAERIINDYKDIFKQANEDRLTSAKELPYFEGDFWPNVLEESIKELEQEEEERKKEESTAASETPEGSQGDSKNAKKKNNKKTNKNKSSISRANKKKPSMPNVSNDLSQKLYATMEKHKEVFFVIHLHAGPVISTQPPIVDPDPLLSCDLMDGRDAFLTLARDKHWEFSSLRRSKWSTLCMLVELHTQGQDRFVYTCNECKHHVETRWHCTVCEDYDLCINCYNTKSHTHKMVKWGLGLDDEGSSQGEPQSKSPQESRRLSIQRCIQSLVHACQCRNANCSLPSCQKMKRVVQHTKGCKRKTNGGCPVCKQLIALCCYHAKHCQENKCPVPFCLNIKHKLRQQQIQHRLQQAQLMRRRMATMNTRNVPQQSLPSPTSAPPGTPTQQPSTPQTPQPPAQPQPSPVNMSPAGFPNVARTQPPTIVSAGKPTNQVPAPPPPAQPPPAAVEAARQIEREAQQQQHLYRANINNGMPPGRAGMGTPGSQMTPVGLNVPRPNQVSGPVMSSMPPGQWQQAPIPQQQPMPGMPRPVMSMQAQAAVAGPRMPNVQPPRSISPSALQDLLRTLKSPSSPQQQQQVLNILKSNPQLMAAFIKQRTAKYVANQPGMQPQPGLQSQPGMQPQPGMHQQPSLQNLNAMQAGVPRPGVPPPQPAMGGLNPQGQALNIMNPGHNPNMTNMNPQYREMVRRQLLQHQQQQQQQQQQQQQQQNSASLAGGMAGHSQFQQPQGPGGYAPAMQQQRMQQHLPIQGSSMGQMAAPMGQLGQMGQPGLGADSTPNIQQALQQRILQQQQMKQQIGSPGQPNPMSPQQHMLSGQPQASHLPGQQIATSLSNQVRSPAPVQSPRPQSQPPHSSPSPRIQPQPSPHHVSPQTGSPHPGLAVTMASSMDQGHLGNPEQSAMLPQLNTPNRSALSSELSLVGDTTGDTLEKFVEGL
UniProt Q8C3P7: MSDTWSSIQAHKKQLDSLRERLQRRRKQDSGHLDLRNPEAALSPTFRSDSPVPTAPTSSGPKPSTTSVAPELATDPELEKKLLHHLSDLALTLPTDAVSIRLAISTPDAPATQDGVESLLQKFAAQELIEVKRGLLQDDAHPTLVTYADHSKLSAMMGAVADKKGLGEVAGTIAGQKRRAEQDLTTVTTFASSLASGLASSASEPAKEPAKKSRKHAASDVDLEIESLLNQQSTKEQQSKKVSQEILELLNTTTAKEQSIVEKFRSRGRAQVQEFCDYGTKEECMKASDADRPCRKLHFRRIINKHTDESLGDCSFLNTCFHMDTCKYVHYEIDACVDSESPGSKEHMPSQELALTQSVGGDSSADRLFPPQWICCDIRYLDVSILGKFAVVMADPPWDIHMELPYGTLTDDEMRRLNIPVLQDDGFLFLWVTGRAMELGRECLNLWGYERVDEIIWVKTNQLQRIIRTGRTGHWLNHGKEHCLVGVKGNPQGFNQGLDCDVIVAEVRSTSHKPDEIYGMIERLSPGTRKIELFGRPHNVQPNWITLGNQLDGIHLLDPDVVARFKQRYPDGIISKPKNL

Experiments:
Test in all cases: affinity purification with mass spectrometry; targeted proteomic analysis of intestinal proteins associated with CBP and/or p300 (co-IP of CBP vs. p300) in WT versus p300 S89A mice, male and female, fed or fasted
[1] = molecular target: p300 S89A (knock-in point mutant of mouse p300) (mouse (endogenous in intestinal crypt cells)) (UniProt B2RWS6)
[2] = molecular target: p300 (Kat3B/E1A-binding protein, 300 kDa), wild type mouse (mouse (endogenous in intestinal crypt cells)) (UniProt B2RWS6)
[3] = substrate: CBP (Kat3A/CREBBP, cAMP response element binding protein (CREB)-binding protein) (mouse (endogenous in intestinal crypt cells)) (UniProt P45481)

binding [1]	binding [2]	binding [3]	Molecule
binds	–	–	N6 methyl adenosine 70 kDa subunit Mettl3 (from UniProt Q8C3P7 1-580)
binds	binds	binds	aryl hydrocarbon receptor nuclear translocator-like protein 2 (Bmal2) (protein, UniProt Q2VPD4 1-579) MEFPRKRRGRDSQPLQSEFMTDTTVESLPQNPFASLLSTRTGVSAPSGIREAHSQMEKRRRDKMNHLIQKLSSMIPPHIPTAHKLDKLSVLRRAVQYLRSLRGMTELYLGENSKPSFIQDKELSHLILKAAEGFLFVVGCERGRIFYVSKSVSKTLRYDQASLIGQNLFDFLHPKDVAKVKEQLSCDGSPREKPIDTKTSQVYSHPYTGRPRMHSGSRRSFFFRMKSCTVPVKEEQPCSSCSKKKDHRKFHTVHCTGYLRSWPLNVVGMEKESGGGKDSGPLTCLVAMGRLHPYIVPQKSGKINVRPAEFITRFAMNGKFVYVDQRATAILGYLPQELLGTSCYEYFHQDDHSSLTDKHKAVLQSKEKILTDSYKFRVKDGAFVTLKSEWFSFTNPWTKELEYIVSVNTLVLGRSETRLSLLHCGGSSQSSEDSFRQSCINVPGVSTGTVLGAGSIGTDIANEVLSLQRLHSSSPEDASPSEEVRDDCSVNGGNAYGPASTREPFAVSPSETEVLEAARQHQSTEPAHPHGPLPGDSAQLGFDVLCDSDSIDMAAFMNYLEAEGGLGDPGDFSDIQWAL
